Drug screen on melanoma cell lines: apoptosis marker

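The test systems are human melanoma cell lines, treated with two drugs together for 72 h and then stained and imaged. Each value is the cleaved-PARP-positive fraction of nuclei relative to DMSO-treated wells, in %, so that 100 equals the control and higher values mean more apoptosis. Concentrations were fixed for each drug; these are the higher of two levels. The file gives one value for each pair and line, without errors, so small differences may be noise. The marker varies much from line to line, for technical or biological reasons.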 This is part of the screen, not chosen by result.

Drug key:
dovitinib (0.5 µM): CN1CCN(c2ccc3nc(-c4c(N)c5c(F)cccc5[nH]c4=O)[nH]c3c2)CC1
NVP-TAE684 (0.4 µM): COc1cc(N2CCC(N3CCN(C)CC3)CC2)ccc1Nc1ncc(Cl)c(Nc2ccccc2S(=O)(=O)C(C)C)n1
erlotinib (4 µM): C#Cc1cccc(Nc2ncnc3cc(OCCOC)c(OCCOC)cc23)c1
lapatinib (4 µM): CS(=O)(=O)CCNCc1ccc(-c2ccc3ncnc(Nc4ccc(OCc5cccc(F)c5)c(Cl)c4)c3c2)o1
lenalidomide (5 µM): Nc1cccc2c1CN(C1CCC(=O)NC1=O)C2=O (stereo not shown)
MK-2206 (2 µM): NC1(c2ccc(-c3nc4ccn5c(=O)[nH]nc5c4cc3-c3ccccc3)cc2)CCC1
ruxolitinib (5 µM): N#CC[C@H](C1CCCC1)n1cc(-c2ncnc3[nH]ccc23)cn1

* dovitinib + ruxolitinib : WM1716: 99.5; COLO 792: 189; RVH-421: 57.1; LOX IMVI: 78.1
* erlotinib + ruxolitinib : WM1716: 151; COLO 792: 522; RVH-421: 69.8; LOX IMVI: 56.1
* NVP-TAE684 + ruxolitinib : WM1716: 450; COLO 792: 127; RVH-421: 148; LOX IMVI: 124
* dovitinib + NVP-TAE684 : WM1716: 132; COLO 792: 251; RVH-421: 110; LOX IMVI: 242
* MK-2206 + lapatinib : WM1716: 63.0; COLO 792: 282; RVH-421: 91.8; LOX IMVI: 55.2
* erlotinib + lenalidomide : WM1716: 104; COLO 792: 155; RVH-421: 265; LOX IMVI: 128
* dovitinib + erlotinib : WM1716: 69.5; COLO 792: 434; RVH-421: 88.3; LOX IMVI: 115
* NVP-TAE684 + lenalidomide : WM1716: 109; COLO 792: 133; RVH-421: 203; LOX IMVI: 177
* ruxolitinib + lapatinib : WM1716: 133; COLO 792: 125; RVH-421: 137; LOX IMVI: 67.2
* NVP-TAE684 + erlotinib : WM1716: 154; COLO 792: 455; RVH-421: 46.2; LOX IMVI: 118
* MK-2206 + ruxolitinib : WM1716: 117; COLO 792: 207; RVH-421: 148; LOX IMVI: 147
* dovitinib + lenalidomide : WM1716: 122; COLO 792: 201; RVH-421: 44.2; LOX IMVI: 68.4
* MK-2206 + erlotinib : WM1716: 162; COLO 792: 357; RVH-421: 37.3; LOX IMVI: 46.1
* lenalidomide + ruxolitinib : WM1716: 156; COLO 792: 212; RVH-421: 72.8; LOX IMVI: 131
* lenalidomide + lapatinib : WM1716: 25.4; COLO 792: 83.8; RVH-421: 42.8; LOX IMVI: 152
* NVP-TAE684 + lapatinib : WM1716: 101; COLO 792: 305; RVH-421: 308; LOX IMVI: 121
* NVP-TAE684 + MK-2206 : WM1716: 588; COLO 792: 230; RVH-421: 111; LOX IMVI: 231
* MK-2206 + lenalidomide : WM1716: 42.9; COLO 792: 363; RVH-421: 68.0; LOX IMVI: 74.8
* MK-2206 + dovitinib : WM1716: 110; COLO 792: 956; RVH-421: 40.1; LOX IMVI: 288
* lapatinib + erlotinib : WM1716: 62.1; COLO 792: 151; RVH-421: 62.7; LOX IMVI: 260

Some entries from above, unchanged:

Drugs	WM1716	COLO 792	RVH-421	LOX IMVI
MK-2206 + ruxolitinib	117	207	148	147
ruxolitinib + lapatinib	133	125	137	67.2
MK-2206 + lapatinib	63.0	282	91.8	55.2

Source: doi:10.1371/journal.pone.0140310, primary screening data, rounded.